# The campaign covered roughly 390,000 compounds. About 820 (0.21%) were called active. Inconclusive means that the source gave no clear call. Such entries were picked first, then a sample of the others. Calls follow the shape of the dose curve; as a rule, active = well fitted inhibition curve with a large enough effect; inconclusive = small, poorly fitted or top-dose-only effect, or another doubt; inactive = no such curve, though single readings can be large or run the other way. Where the call is inconclusive, the potency comes from a doubtful curve fit. The source holds several records for some structures; these can differ, active in one and inactive in another.
# Protein sequences, listed by entry. Tags and fused reporters are not part of them.
# UniProt Q92830, whole entry, looked up: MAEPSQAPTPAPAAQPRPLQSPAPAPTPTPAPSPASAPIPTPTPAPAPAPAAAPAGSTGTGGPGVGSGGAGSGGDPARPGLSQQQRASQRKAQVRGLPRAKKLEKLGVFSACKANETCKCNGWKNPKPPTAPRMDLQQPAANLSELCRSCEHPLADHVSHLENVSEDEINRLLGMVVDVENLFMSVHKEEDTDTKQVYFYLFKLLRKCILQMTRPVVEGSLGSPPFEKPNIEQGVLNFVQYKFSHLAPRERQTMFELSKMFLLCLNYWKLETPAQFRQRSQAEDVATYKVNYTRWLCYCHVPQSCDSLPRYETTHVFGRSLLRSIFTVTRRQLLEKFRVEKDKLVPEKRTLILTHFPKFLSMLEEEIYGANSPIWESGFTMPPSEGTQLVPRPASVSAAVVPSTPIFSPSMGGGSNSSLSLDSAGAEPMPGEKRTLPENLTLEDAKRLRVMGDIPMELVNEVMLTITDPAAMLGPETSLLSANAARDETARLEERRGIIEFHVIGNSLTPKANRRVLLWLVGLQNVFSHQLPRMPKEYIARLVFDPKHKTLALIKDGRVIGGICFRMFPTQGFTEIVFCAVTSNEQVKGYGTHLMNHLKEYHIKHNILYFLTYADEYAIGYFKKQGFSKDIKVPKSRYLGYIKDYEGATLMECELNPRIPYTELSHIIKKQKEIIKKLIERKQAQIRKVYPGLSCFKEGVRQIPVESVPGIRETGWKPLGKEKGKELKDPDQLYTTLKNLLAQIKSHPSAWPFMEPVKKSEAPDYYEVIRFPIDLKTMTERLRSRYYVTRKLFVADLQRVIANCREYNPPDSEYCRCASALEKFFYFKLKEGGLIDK
# Molecular target: Histone acetyltransferase KAT2A (Homo sapiens) (UniProt Q92830)
# Assay: qHTS Assay for Inhibitors of GCN5L2
# Details: GCN5L2 HAT assay, ThioGlo1 CoA-SH fluorescence; series mostly up to 58.9 µM
# Outline: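 Compounds, pin-transferred from DMSO stocks, meet 20nM GCN5L2 for 15 min before the reaction begins with H3(1-25) peptide (75uM) and acetyl-CoA (70uM). Thiol-reactive ThioGlo1 reports CoA release over 20 min at room temperature.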
# Potency is read from the fitted curve at half-maximal effect.
row,SMILES,Potency
1,C=CCc1cc(OC)ccc1OCCCCn1cncn1,"inconclusive: 6.31 µM [inhibitor, single point]"
2,CC(=O)NC(CC(=O)NNC(=O)c1cc2ccccc2cc1O)c1ccccc1 (stereo not given),"inconclusive: 44.7 µM [inhibitor, partial curve, poor fit]"
3,CC(=O)c1ccc(NC(=O)C[n+]2cccc(C)c2)cc1,"inconclusive: 6.31 µM [inhibitor, single point]"
4,CCn1c(SCCN2CCOCC2)nc2c1c(=O)n(C)c(=O)n2C,inactive
5,O=C(c1c(F)cccc1F)N1CCC(O)(c2ccc(F)cc2)CC1,"inconclusive: 3.16 µM [inhibitor, single point]"
6,Nc1nc(NCCCN2CCOCC2)nc(Nc2ccccc2F)c1[N+](=O)[O-],inactive
7,O=C(N/N=C/c1cc2c(cc1Cl)OCO2)c1cccc(Br)c1,"inconclusive: 10 µM [inhibitor, partial curve, poor fit]"
8,COc1ccc(CN2C(=O)[C@@H]3C(c4ccc(F)cc4)=NO[C@@H]3C2=O)cc1,inactive
9,CC(C)C[C@H](NC(=O)c1nc[nH]c1C(=O)N1CCc2ccccc2C1)C(=O)OC(C)(C)C,inactive
10,COC(=O)/C=C\C(=O)Nc1cccc([N+](=O)[O-])c1,"inconclusive: 39.8 µM [inhibitor, single point]"
11,C/C(=N\N=C1\NC(=O)C(Cc2ccccc2)S1)c1ccccc1 (stereo not given),inactive
12,COc1cc(CCc2ccccc2)c(C(=O)O)c(O)c1C/C=C(/C)CCC=C(C)C,active: 14.1 µM
13,O=C(O)c1ccc(CSc2nnc(-c3cccnc3)n2-c2ccc(Br)cc2)cc1,inactive
14,Cc1cc(/C=C2\C(=N)N3N=C(c4ccco4)SC3=NC2=O)c(C)n1Cc1ccccc1,"inconclusive: 35.5 µM [inhibitor, single point]"
15,COCCn1c(=O)c(-c2cccs2)nc2cnc(OCc3ccccc3)nc21,"inconclusive: 25.1 µM [inhibitor, single point]"
16,CCOc1ccc(C(=O)NC(=S)Nc2ccc(NC(=O)c3ccco3)cc2)cc1[N+](=O)[O-],"inconclusive: 7.94 µM [inhibitor, full curve, poor fit]"
17,Cc1cccc(N2C(=O)CSC23C(=O)N(CC(=O)Nc2cccc(Cl)c2)c2ccccc23)c1 (stereo not given),inactive
18,Cc1sc(NC(=O)/C=C/c2ccc3c(c2)OCO3)nc1-c1ccccc1,"inconclusive: 39.8 µM [inhibitor, single point]"
19,COc1ccc(-c2nc3cnccn3c2Nc2ccc(C)cc2)cc1,"inconclusive: 35.5 µM [inhibitor, single point]"
20,CCC(SC1=N/C(=C/c2ccccc2OC)C(=O)N1c1ccccc1)C(=O)Nc1cc(C)on1 (stereo not given),"inconclusive: 0.447 µM [inhibitor, single point]"
21,Cc1ccc(Cl)cc1N1CCN(C(=O)c2cc3ccc4cccnc4c3[nH]2)CC1,inactive
22,COc1ccccc1[C@]1(C)ON(c2ccccc2C(F)(F)F)C1=O,inactive
23,CN1C(=O)C2(Oc3ccccc3C3CC(c4ccccc4)=NN32)c2ccccc21 (stereo not given),inactive
24,CCN(C(=O)CSc1nc2ccccc2c(=O)n1Cc1ccc(C)cc1)C1CCS(=O)(=O)C1 (stereo not given),"inconclusive: 0.126 µM [inhibitor, partial curve, poor fit]"

# Structures from the list above containing an NH in an aromatic ring, in the order listed:
row,SMILES,Potency
9,CC(C)C[C@H](NC(=O)c1nc[nH]c1C(=O)N1CCc2ccccc2C1)C(=O)OC(C)(C)C,inactive
21,Cc1ccc(Cl)cc1N1CCN(C(=O)c2cc3ccc4cccnc4c3[nH]2)CC1,inactive

# (further entries)

row,SMILES,Potency
1,N=C1/C(=C\c2ccc(SCc3ccco3)o2)C(=O)N=C2SC=NN12,"inconclusive: 39.8 µM [inhibitor, partial curve, poor fit]"
2,COc1ccc(-c2nnn3c2nc(NCc2ccc(C)cc2)c2ccccc23)cc1,inactive
3,CCOc1cc(/C=N/NC(=O)CSc2nncn2C)ccc1OCC(N)=O,"inconclusive: 15.8 µM [inhibitor, partial curve, poor fit]"
4,c1ccc(-n2nnnc2SCc2cn3ccccc3n2)cc1,inactive
5,COc1ccccc1NC1=C(N2CCCCC2)C(=O)c2ccccc2C1=O,inactive
6,C=CCn1c(O)c(/C=C2\C=NN=C2c2ccccc2)sc1=S,"inconclusive: 3.98 µM [inhibitor, partial curve]"
7,CCOc1ccc(NS(=O)(=O)c2cc(C(=O)N3CCCC3)ccc2Cl)cc1,"inconclusive: 7.08 µM [inhibitor, single point]"
8,O=C(/C=C/c1ccc2c(c1)OCO2)c1cccnc1,inactive
9,Cc1nc(C)c(C(=O)N2CCCC(C(=O)c3cc(F)ccc3F)C2)s1 (stereo not given),"inconclusive: 6.31 µM [inhibitor, single point]"
10,CCOC(=O)CSc1nc2cc(C)ccc2cc1C#N,"inconclusive: 0.794 µM [inhibitor, single point]"
11,Cc1ccc(C2CN=NC23CCc2ccccc2C3=O)cc1 (stereo not given),inactive
12,COc1ccc(Nc2cc(C)c3c(O)cccc3n2)cc1,inactive
13,Cc1ccc(NC(=O)CSc2nc(-c3cccs3)nc3cc(=O)[nH]n23)cc1C,"inconclusive: 22.4 µM [inhibitor, single point]"
14,CC[C@@H]1C(c2cccc(C)c2)=NN(c2ccc(Br)cc2)[C@H]1C(=O)N1CCOC1=O,"inconclusive: 12.6 µM [inhibitor, partial curve]"
15,CCc1cccc(CC)c1NC(=O)CSc1nnc(C2CC2)n1C,inactive
16,Cc1cc(Cl)ccc1OC(C)C(=O)Nc1ccc(S(=O)(=O)Nc2cnc3ccccc3n2)cc1 (stereo not given),"inconclusive: 1.58 µM [inhibitor, partial curve, poor fit]"
17,CC(=O)c1ccc(NC(=O)c2noc3c2CCC3)cc1,"inconclusive: 35.5 µM [inhibitor, single point]"
18,CN(C)/C=N/c1sc2c(c1C#N)CCCCC2,inactive
19,Cc1ccc(-n2ncc3c2CCCC3NC(=O)c2ocnc2C)cc1C (stereo not given),"inconclusive: 10 µM [inhibitor, partial curve, poor fit]"
20,C[C@]12c3[nH]c4ccccc4c3CCN1C(=O)C(CC(=O)NCC13CC4CC(CC(C4)C1)C3)C[C@@H]2C(=O)N1CCCCC1 (stereo not given in full),inactive
21,CCN1CCN(S(=O)(=O)c2ccc(OC)c3ccccc23)CC1,"inconclusive: 39.8 µM [inhibitor, single point]"
22,C=C1c2c(Cl)ccc(O)c2C(O)=C2C(=O)[C@]3(O)C(O)=C(C(N)=O)C(=O)C(N(C)C)C3C(O)C12 (stereo not given in full),active: 25.1 µM
23,O=c1c2ccccc2c(-c2ccccc2)nn1Cc1c(Cl)cccc1Cl,inactive
24,CN(C)S(=O)(=O)c1cccc(-c2nn(-c3ccccc3)cc2/C=C2\SC(=S)N(CC(=O)O)C2=O)c1,"inconclusive: 31.6 µM [inhibitor, single point]"

row,SMILES,Potency
1,O=C(CSc1nc(-c2cccs2)nc2cc(=O)[nH]n12)Nc1cccc(C(F)(F)F)c1,"inconclusive: 20 µM [inhibitor, single point]"
2,CCC(COC(=O)Nc1cccc(C)c1C)NC(=O)OCC(C)C (stereo not given),"inconclusive: 7.08 µM [inhibitor, single point]"
3,Brc1ccc(C2=CC(c3cccs3)n3ncnc3N2)cc1 (stereo not given),"inconclusive: 39.8 µM [inhibitor, single point]"
4,O=C(Oc1cccc(Br)c1)c1cccnc1,"inconclusive: 39.8 µM [inhibitor, single point]"
5,CCOC(=O)c1c(NC(=O)C(Sc2ccccc2)c2ccccc2)sc(C(N)=O)c1C (stereo not given),"inconclusive: 0.891 µM [inhibitor, single point]"
6,CCOC(=O)[C@H]1[C@H]2COc3ccc(C)cc3[C@@H]2N2C(=O)c3ccccc3NC(=O)[C@@]12C,inactive
7,COc1ccccc1CN1CC(C(=O)NCCc2ncccc2C)CCC1=O (stereo not given),inactive
8,Fc1ccccc1Oc1nc(-c2ccncc2)nc2ccccc12,inactive
9,Cc1ccc(C(=O)C2=C(O)C(=O)N(CCCn3ccnc3)C2c2ccc(OC(C)C)cc2)o1 (stereo not given),"inconclusive: 39.8 µM [inhibitor, single point]"
10,COc1cccc(NC(=O)c2sc3nc(C)c(C(=O)Nc4ccc(Cl)cc4)c(-c4ccc(Br)cc4)c3c2N)c1,"inconclusive: 17.8 µM [inhibitor, partial curve]"
11,COC(=O)c1ccccc1NC(=S)NC(=O)c1ccc2c(c1)OCO2,"inconclusive: 44.7 µM [inhibitor, partial curve, poor fit]"
12,COc1ccc(C2C=C(c3cccs3)Nc3nc(CCCO)nn32)cc1 (stereo not given),"inconclusive: 39.8 µM [inhibitor, single point]"
13,O=C(OCCN1CCOCC1)c1cccnc1,active: 1.12 µM
14,CCn1nc(C(=O)Nc2cccc3ccccc23)c(Cl)c1Cl,"inconclusive: 1.78 µM [inhibitor, partial curve]"
15,CCc1ccc2nc3n[nH]c(N)c3cc2c1,"inconclusive: 0.631 µM [inhibitor, single point]"
16,CC1(CC(=O)NNC(=O)Nc2ccccc2)OCCCO1,"inconclusive: 39.8 µM [inhibitor, single point]"
17,Cc1sc2nc[nH]c(=O)c2c1-c1ccc(F)cc1,"inconclusive: 0.794 µM [inhibitor, single point]"
18,COc1cc(C=C2C(=O)OC(c3ccccc3)OC2=O)cc(Br)c1O (stereo not given),inactive
19,Nc1ncnc2sc3c(c12)CCNC3,"inconclusive: 3.98 µM [inhibitor, single point]"
20,COC(=O)c1cc2oc(C)cc2n1CC(=O)N1CCCc2ccccc21,"inconclusive: 0.398 µM [inhibitor, partial curve, poor fit]"
21,COCCCNC(=O)c1ccc2c(=O)n(CC3CCCO3)c(=S)[nH]c2c1 (stereo not given),"inconclusive: 35.5 µM [inhibitor, single point]"
22,NC(=O)CC(NC(=O)c1ccc(Br)cc1)c1ccc(N2CCCCCC2)c([N+](=O)[O-])c1 (stereo not given),"inconclusive: 3.55 µM [inhibitor, single point]"

# In a second layout: 4 of the compounds above.
row | SMILES | Potency
2 | CCC(COC(=O)Nc1cccc(C)c1C)NC(=O)OCC(C)C (stereo not given) | inconclusive: 7.08 µM [inhibitor, single point]
10 | COc1cccc(NC(=O)c2sc3nc(C)c(C(=O)Nc4ccc(Cl)cc4)c(-c4ccc(Br)cc4)c3c2N)c1 | inconclusive: 17.8 µM [inhibitor, partial curve]
17 | Cc1sc2nc[nH]c(=O)c2c1-c1ccc(F)cc1 | inconclusive: 0.794 µM [inhibitor, single point]
19 | Nc1ncnc2sc3c(c12)CCNC3 | inconclusive: 3.98 µM [inhibitor, single point]
